Source: patent publication US8034769

Chains of the proteins cited; added tags and fusions are not shown. Lines headed by an entry give the natural chain unless they say otherwise; changes in a name come on top. Residues count along the entry.
UniProt P16671: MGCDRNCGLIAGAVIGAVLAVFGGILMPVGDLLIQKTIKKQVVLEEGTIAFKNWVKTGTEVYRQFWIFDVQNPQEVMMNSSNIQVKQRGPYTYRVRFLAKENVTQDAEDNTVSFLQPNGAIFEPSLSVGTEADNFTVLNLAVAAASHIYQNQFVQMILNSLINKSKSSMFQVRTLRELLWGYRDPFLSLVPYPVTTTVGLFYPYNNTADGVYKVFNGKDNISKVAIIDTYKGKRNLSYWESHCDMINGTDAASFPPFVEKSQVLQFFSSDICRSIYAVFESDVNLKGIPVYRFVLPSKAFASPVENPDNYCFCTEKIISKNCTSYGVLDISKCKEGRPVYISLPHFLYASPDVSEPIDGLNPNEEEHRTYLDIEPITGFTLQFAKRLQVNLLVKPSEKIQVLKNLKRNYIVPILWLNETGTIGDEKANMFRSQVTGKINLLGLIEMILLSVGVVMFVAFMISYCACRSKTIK
UniProt P07996, residues 19-1170: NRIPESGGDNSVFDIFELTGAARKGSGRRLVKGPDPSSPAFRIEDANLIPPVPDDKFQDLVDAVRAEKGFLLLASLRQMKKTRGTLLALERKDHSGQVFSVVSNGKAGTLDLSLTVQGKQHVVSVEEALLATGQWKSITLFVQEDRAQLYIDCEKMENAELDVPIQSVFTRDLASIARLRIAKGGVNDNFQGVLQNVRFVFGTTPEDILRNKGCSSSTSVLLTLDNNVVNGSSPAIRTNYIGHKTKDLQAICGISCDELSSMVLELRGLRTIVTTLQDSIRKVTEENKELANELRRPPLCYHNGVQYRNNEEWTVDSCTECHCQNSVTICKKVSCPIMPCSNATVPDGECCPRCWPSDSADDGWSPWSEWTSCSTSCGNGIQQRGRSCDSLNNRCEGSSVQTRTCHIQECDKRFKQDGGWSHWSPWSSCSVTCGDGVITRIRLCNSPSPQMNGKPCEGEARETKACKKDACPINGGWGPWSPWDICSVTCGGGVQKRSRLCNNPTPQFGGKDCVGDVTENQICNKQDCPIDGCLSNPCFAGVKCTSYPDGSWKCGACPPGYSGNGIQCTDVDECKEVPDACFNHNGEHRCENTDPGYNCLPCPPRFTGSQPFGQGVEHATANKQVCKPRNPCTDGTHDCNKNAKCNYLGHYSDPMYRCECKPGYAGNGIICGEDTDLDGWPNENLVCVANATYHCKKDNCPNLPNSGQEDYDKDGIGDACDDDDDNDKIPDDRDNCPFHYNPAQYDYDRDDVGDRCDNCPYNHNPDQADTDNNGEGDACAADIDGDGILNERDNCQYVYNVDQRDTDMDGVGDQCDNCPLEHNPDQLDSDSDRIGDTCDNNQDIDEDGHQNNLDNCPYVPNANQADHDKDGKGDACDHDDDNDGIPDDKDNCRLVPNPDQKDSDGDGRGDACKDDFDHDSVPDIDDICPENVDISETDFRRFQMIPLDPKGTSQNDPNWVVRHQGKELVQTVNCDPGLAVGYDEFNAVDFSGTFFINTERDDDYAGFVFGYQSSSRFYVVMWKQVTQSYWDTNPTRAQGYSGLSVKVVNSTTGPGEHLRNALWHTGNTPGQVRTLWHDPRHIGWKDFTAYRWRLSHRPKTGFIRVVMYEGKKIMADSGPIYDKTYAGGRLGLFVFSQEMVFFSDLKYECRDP

How the values were obtained:
[1] = molecular target: CD36 (human) (UniProt P16671); assay: flow cytometry on Jurkat cells with oxidized antithrombin III, with or without TSP-1 25 µg/ml, detection with anti-TSP clone P10-PE (FIG. 15d)
[2] = molecular target: CD36 (human) (UniProt P16671); assay: flow cytometry, FITC-conjugated TSP-1 (50 µg/ml) on human thrombocytes with oxidized fibrinogen (FIG. 15a)
[3] = molecular target: CD36 (human) (UniProt P16671); assay: summary in the legend of FIG. 16a
[4] = molecular target: CD36 (human) (UniProt P16671); assay: flow cytometry on cells, in the presence of oxidized proteins (FIGS. 15a-d)
[5] = molecular target: CD36 (human) (UniProt P16671); assay: flow cytometry on HMEC-1 cells with oxidized antithrombin III, detection with anti-TSP-1 clone P10-PE (FIG. 15b)
[6] = molecular target: CD36 (human) (UniProt P16671); assay: flow cytometry on monocytes with anti-TSP-1 clone P10; TSP-1 and oxidized ATIII added (FIG. 15c)

Measured: binding

human thrombospondin-1 (from UniProt P07996 19-1170) (ligand)
binds: all assays above

Results are given in words; binding and its absence hold for the method and conditions named. Binding calls can cover weak binding; strength is not graded here.
